Taken from: PubChem BioAssay AID1259254 (NCATS, 2017)
This is a random part of about 59,000 deposited reagents. Of all reagents, about 1,550 (2.6%) are marked active. 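G2 share is only a proxy for re-replication; each gene was hit by three separate siRNAs, and active genes were retested.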 Reagents against one gene are numbered here. Not all columns of the deposit are shown. No sequences are given here. Not given: the amount of reagent.

- Aim: 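Gene knock-downs that lead to re-replication, shown by excess G2 DNA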 (primary screen)
- Cell system: human HCT116 colorectal cancer cells
- Reagents: single siRNA against human genes
- Timing: 3 days
- Measured: 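Nuclei stained with Hoechst and imaged; cell-cycle phase assigned by DNA content; G2 share scaled per plate, non-targeting siRNA 0%, GMNN siRNA 100%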
- Direction: G2 robust z-score: higher = more G2 cells, more excess DNA replication
- Hit rule: 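Active siRNAs have a G2 robust z of 5 or more median absolute deviations over the median, which in these data means about 38% or higher of GMNN control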

Target gene	reagent	G2 robust z-score	call
INF2 (inverted formin 2)	1	-0.208	inactive
INF2 (inverted formin 2)	2	0.229	inactive
INF2 (inverted formin 2)	3	-0.715	inactive
ZNF273 (zinc finger protein 273)	1	2.93	inactive
ZNF273 (zinc finger protein 273)	2	0.255	inactive
ZNF273 (zinc finger protein 273)	3	-0.554	inactive
AACS (acetoacetyl-CoA synthetase)	1	-0.594	inactive
AACS (acetoacetyl-CoA synthetase)	2	-0.0735	inactive
AACS (acetoacetyl-CoA synthetase)	3	-0.773	inactive
OR4D10 (olfactory receptor family 4 subfamily D member 10)	1	-0.505	inactive
OR4D10 (olfactory receptor family 4 subfamily D member 10)	2	-0.855	inactive
OR4D10 (olfactory receptor family 4 subfamily D member 10)	3	-0.661	inactive
ZNF543 (zinc finger protein 543)	1	1.04	inactive
ZNF543 (zinc finger protein 543)	2	-0.648	inactive
ZNF543 (zinc finger protein 543)	3	-0.675	inactive
CD164 (CD164 molecule)	1	2.48	inactive
CD164 (CD164 molecule)	2	0.107	inactive
CD164 (CD164 molecule)	3	0.207	inactive
GMPR2 (guanosine monophosphate reductase 2)	1	0.645	inactive
GMPR2 (guanosine monophosphate reductase 2)	2	0.24	inactive
GMPR2 (guanosine monophosphate reductase 2)	3	-0.844	inactive

Targets listed so far whose target name begins with I or i (3):
Target gene	reagent	G2 robust z-score	call
INF2 (inverted formin 2)	1	-0.208	inactive
INF2 (inverted formin 2)	2	0.229	inactive
INF2 (inverted formin 2)	3	-0.715	inactive

The list goes on:
Target gene	reagent	G2 robust z-score	call
COBLL1 (cordon-bleu WH2 repeat protein like 1)	1	-0.221	inactive
COBLL1 (cordon-bleu WH2 repeat protein like 1)	2	0.516	inactive
COBLL1 (cordon-bleu WH2 repeat protein like 1)	3	-0.012	inactive
CRKL (CRK like proto-oncogene, adaptor protein)	1	7.41	active
CRKL (CRK like proto-oncogene, adaptor protein)	2	0.834	inactive
CRKL (CRK like proto-oncogene, adaptor protein)	3	3.03	inactive
EIF2B2 (eukaryotic translation initiation factor 2B subunit beta)	1	0.7	inactive
EIF2B2 (eukaryotic translation initiation factor 2B subunit beta)	2	3.28	inactive
EIF2B2 (eukaryotic translation initiation factor 2B subunit beta)	3	-0.18	inactive
PDXDC2P-NPIPB14P (PDXDC2P-NPIPB14P readthrough, transcribed pseudogene)	1	-0.081	inactive
PDXDC2P-NPIPB14P (PDXDC2P-NPIPB14P readthrough, transcribed pseudogene)	2	0.865	inactive
PDXDC2P-NPIPB14P (PDXDC2P-NPIPB14P readthrough, transcribed pseudogene)	3	1.79	inactive
DHDH (dihydrodiol dehydrogenase)	1	1.04	inactive
DHDH (dihydrodiol dehydrogenase)	2	-0.557	inactive
DHDH (dihydrodiol dehydrogenase)	3	0.365	inactive
NECTIN4 (nectin cell adhesion molecule 4)	1	-0.113	inactive
NECTIN4 (nectin cell adhesion molecule 4)	2	0.336	inactive
NECTIN4 (nectin cell adhesion molecule 4)	3	1.22	inactive
SCD5 (stearoyl-CoA desaturase 5)	1	-1.01	inactive
SCD5 (stearoyl-CoA desaturase 5)	2	0.238	inactive
SCD5 (stearoyl-CoA desaturase 5)	3	-0.14	inactive
ZNF702P (zinc finger protein 702, pseudogene)	1	0.748	inactive
ZNF702P (zinc finger protein 702, pseudogene)	2	-1.09	inactive
ZNF702P (zinc finger protein 702, pseudogene)	3	-0.185	inactive
CIMIP2B (ciliary microtubule inner protein 2B)	1	0.968	inactive
CIMIP2B (ciliary microtubule inner protein 2B)	2	-0.823	inactive
CIMIP2B (ciliary microtubule inner protein 2B)	3	0.821	inactive
